Measurements reported in PubChem BioAssay AID1259290 (Sanger Institute, 2017).

Test: 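Identify kinases needed for colorectal cancer cell survival, with or without anchor drugs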 (primary screen)
Cells: human SNUC1 colorectal cancer cells
Reagents: siRNA pool against human genes
Treatment: anchor drugs BYL719 1 µM, cetuximab 5 µg/ml or trametinib 10 nM, or DMSO vehicle alone
Measurement: 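Cell viability relative to a non-targeting siRNA control, replicate-averaged, as robust z-score for knock-down alone, plus a synergy score for each anchor drug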
Reading the numbers: viability z-score, siRNA alone: higher = more viable cells; low values mean essential gene; viability vs control, siRNA alone: higher = more viable cells; synergy score with BYL719 and synergy score with Cetuximab and synergy score with Trametinib: higher = stronger synthetic lethal effect with drug
Hit rule: 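a knock-down without drug scoring a robust z under -3 counts as essential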
Meaning of the calls: active = essential: knock-down alone cut viability (z below -3); inactive = no clear viability loss with knock-down alone
The whole screen tested 794 reagents; this is a random part of them. Of all reagents, 9 (1.1%) got an active call. 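Calls rest on knock-down alone, not drug synergy; synergy above 0.15 was grouped apart and does not affect calls.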 Unmarked entries are inactive. Viability is capped at 1. The record does not give: the amount of reagent, the time to read-out.

Gene,"viability z-score, siRNA alone","viability vs control, siRNA alone",synergy score with BYL719,synergy score with Cetuximab,synergy score with Trametinib
AURKA (aurora kinase A),0.655,0.975,0.0486,0.122,0.0808
BMP2K (BMP2 inducible kinase),0.936,1,-0.0825,0.0954,-0.014
TRPM6,-0.554,0.866,-0.306,-0.173,-0.0589
PPP2R1A (protein phosphatase 2 scaffold subunit Aalpha),-0.226,0.895,-0.201,0.0883,-0.198
RYK (receptor like tyrosine kinase),0.936,1,-0.198,-0.0447,-0.162
DGKK (diacylglycerol kinase kappa),-1.39,0.79,-0.115,0.0281,-0.223
AKT3 (AKT serine/threonine kinase 3),-0.524,0.868,-0.199,-0.0842,0.0299
NEK9 (NIMA related kinase 9),-0.524,0.868,-0.201,0.0279,-0.0945
RIPK2 (receptor interacting serine/threonine kinase 2),-0.559,0.865,-0.154,0.00721,0.0977
NEK6 (NIMA related kinase 6),0.667,0.976,-0.0475,-0.0595,-0.0207
PIK3R4 (phosphoinositide-3-kinase regulatory subunit 4),0.66,0.975,-0.218,0.0312,0.0016
PRKACG (protein kinase cAMP-activated catalytic subunit gamma),0.936,1,0.0613,0.0872,0.0934
WNK3 (WNK lysine deficient protein kinase 3),-1.16,0.811,-0.2,-0.0298,-0.21
MPP3 (MAGUK p55 scaffold protein 3),0.936,1,-0.103,0.178,0.301
RPS6KA1 (ribosomal protein S6 kinase A1),-1,0.825,-0.214,0.022,0.0278

Taken from above:
Value for AKT3 (AKT serine/threonine kinase 3) in “synergy score with Cetuximab”: -0.0842
For “viability z-score, siRNA alone”, PIK3R4 (phosphoinositide-3-kinase regulatory subunit 4) is entered as 0.66
Under “synergy score with Trametinib”, AURKA (aurora kinase A) is entered as 0.0808
Result for WNK3 (WNK lysine deficient protein kinase 3) under “viability vs control, siRNA alone”: 0.811
For “synergy score with BYL719”, TRPM6 shows -0.306
Result for MPP3 (MAGUK p55 scaffold protein 3) under “viability vs control, siRNA alone”: 1

The listing continues:
Gene,"viability z-score, siRNA alone","viability vs control, siRNA alone",synergy score with BYL719,synergy score with Cetuximab,synergy score with Trametinib
RPS6KB1 (ribosomal protein S6 kinase B1),-0.0329,0.913,-0.244,-0.0582,-0.00127
MPP2 (MAGUK p55 scaffold protein 2),0.675,0.976,0.0535,0.0511,0.129
ITPKB (inositol-trisphosphate 3-kinase B),-0.373,0.882,-0.219,-0.00258,-0.106
TPD52L3 (TPD52 like 3),0.936,1,-0.198,-0.0447,-0.132
STK35 (serine/threonine kinase 35),-0.0417,0.912,-0.0738,0.0326,-0.0216
FLT3 (fms related receptor tyrosine kinase 3),0.0396,0.919,-0.108,-0.00951,0.0362
EIF2AK1 (eukaryotic translation initiation factor 2 alpha kinase 1),0.791,0.987,-0.165,0.0722,-0.0644
SMAD2 (SMAD family member 2),-2.22,0.716,-0.306,-0.00545,-0.201
BRSK2 (BR serine/threonine kinase 2),0.827,0.99,0.0643,0.0298,0.191
SIK3 (SIK family kinase 3),0.792,0.987,-0.209,-0.0265,-0.0573
TJP2 (tight junction protein 2),0.936,1,0.162,0.053,0.102
NUP62 (nucleoporin 62),-1.1,0.816,-0.193,0.00855,-0.049
PIP5KL1 (phosphatidylinositol-4-phosphate 5-kinase like 1),-1.46,0.784,-0.16,-0.162,-0.0584
LMTK2 (lemur tail kinase 2),0.936,1,-0.187,-0.0447,0.0951
TAOK3 (TAO kinase 3),-1.21,0.807,-0.0733,0.0269,0.0129
FN3KRP (fructosamine 3 kinase related protein),-2.22,0.716,-0.16,-0.0465,-0.0145
ADCK1 (aarF domain containing kinase 1),0.936,1,0.00392,0.0254,0.0637
SCYL3 (SCY1 like pseudokinase 3),0.398,0.951,-0.15,-0.0911,0.0396
TRIO (trio Rho guanine nucleotide exchange factor),0.224,0.936,-0.0656,-0.061,0.059
